Reference: patent US20210154279A1
Results are given in words; binding and its absence hold for the method and conditions named. In cells and extracts the contact can be indirect. Some results given as binding are weak or reduced against the parent protein; the word gives no strength.

Target: HLA-B*0702 (human)
Experiment: peptide eluted from W6/32-purified MHC class I of CRC tumour, IMAC, LC-MS/MS; allele as printed in Table 4

binding: binds
Binder: APRDRRAVSF (phosphoserine at position 9 (lowercase s)) [TTC22 phosphopeptide APRDRRAVsF]
